Results are given in words; binding and its absence hold for the method and conditions named. Binding seen in cells or lysates may run through a third protein. A result given as binding can be weak or reduced; the word gives no strength.
T1: CEP63 (human (endogenous in U87, 293T/17 and HeLa)) (UniProt Q96MT8)
T1 sequence: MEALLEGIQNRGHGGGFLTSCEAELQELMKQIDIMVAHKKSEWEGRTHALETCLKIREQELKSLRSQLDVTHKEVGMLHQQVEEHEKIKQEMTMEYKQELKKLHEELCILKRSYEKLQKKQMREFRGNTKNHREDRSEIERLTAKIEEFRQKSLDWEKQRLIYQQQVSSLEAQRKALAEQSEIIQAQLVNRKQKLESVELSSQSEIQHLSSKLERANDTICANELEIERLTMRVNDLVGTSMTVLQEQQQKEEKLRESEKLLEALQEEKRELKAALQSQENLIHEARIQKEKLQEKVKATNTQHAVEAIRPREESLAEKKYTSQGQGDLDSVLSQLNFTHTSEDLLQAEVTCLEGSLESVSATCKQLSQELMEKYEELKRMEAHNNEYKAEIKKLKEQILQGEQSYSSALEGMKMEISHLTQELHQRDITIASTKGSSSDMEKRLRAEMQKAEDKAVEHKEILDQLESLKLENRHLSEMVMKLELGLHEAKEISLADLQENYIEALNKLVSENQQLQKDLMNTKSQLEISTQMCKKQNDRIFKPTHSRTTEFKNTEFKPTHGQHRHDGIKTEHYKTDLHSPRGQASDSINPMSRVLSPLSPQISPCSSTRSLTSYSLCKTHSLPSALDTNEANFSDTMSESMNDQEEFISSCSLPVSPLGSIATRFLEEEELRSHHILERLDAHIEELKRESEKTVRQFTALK

B1: CEP63 (protein, UniProt Q96MT8 1-703)
chain: MEALLEGIQNRGHGGGFLTSCEAELQELMKQIDIMVAHKKSEWEGRTHALETCLKIREQELKSLRSQLDVTHKEVGMLHQQVEEHEKIKQEMTMEYKQELKKLHEELCILKRSYEKLQKKQMREFRGNTKNHREDRSEIERLTAKIEEFRQKSLDWEKQRLIYQQQVSSLEAQRKALAEQSEIIQAQLVNRKQKLESVELSSQSEIQHLSSKLERANDTICANELEIERLTMRVNDLVGTSMTVLQEQQQKEEKLRESEKLLEALQEEKRELKAALQSQENLIHEARIQKEKLQEKVKATNTQHAVEAIRPREESLAEKKYTSQGQGDLDSVLSQLNFTHTSEDLLQAEVTCLEGSLESVSATCKQLSQELMEKYEELKRMEAHNNEYKAEIKKLKEQILQGEQSYSSALEGMKMEISHLTQELHQRDITIASTKGSSSDMEKRLRAEMQKAEDKAVEHKEILDQLESLKLENRHLSEMVMKLELGLHEAKEISLADLQENYIEALNKLVSENQQLQKDLMNTKSQLEISTQMCKKQNDRIFKPTHSRTTEFKNTEFKPTHGQHRHDGIKTEHYKTDLHSPRGQASDSINPMSRVLSPLSPQISPCSSTRSLTSYSLCKTHSLPSALDTNEANFSDTMSESMNDQEEFISSCSLPVSPLGSIATRFLEEEELRSHHILERLDAHIEELKRESEKTVRQFTALK

Tests used:
[1] = molecular target: T1, CEP63 (human (endogenous in U87, 293T/17 and HeLa)); test: co-IP
[2] = molecular target: Myc-tagged Brazilian ZIKV NS3 (Zika virus (Brazilian strain)); test: co-IP

Molecule	binding [1]	binding [2]
ZIKV nonstructural protein NS3 (produced by infection with ZIKV strain PRVABC59) (Zika virus (strain PRVABC59))	binds	
B1		binds
